Test results reported in article PMC12523365.
These are yes or no findings as the source states them, for the method shown. In cells and extracts the contact can be indirect. Some entries that bind do so weakly or less than the wild type. Tags and fused reporters may be left off the sequences shown.

By UniProt entry, the sequences of proteins in these tests, tags left out.
UniProt Q9Y6R4: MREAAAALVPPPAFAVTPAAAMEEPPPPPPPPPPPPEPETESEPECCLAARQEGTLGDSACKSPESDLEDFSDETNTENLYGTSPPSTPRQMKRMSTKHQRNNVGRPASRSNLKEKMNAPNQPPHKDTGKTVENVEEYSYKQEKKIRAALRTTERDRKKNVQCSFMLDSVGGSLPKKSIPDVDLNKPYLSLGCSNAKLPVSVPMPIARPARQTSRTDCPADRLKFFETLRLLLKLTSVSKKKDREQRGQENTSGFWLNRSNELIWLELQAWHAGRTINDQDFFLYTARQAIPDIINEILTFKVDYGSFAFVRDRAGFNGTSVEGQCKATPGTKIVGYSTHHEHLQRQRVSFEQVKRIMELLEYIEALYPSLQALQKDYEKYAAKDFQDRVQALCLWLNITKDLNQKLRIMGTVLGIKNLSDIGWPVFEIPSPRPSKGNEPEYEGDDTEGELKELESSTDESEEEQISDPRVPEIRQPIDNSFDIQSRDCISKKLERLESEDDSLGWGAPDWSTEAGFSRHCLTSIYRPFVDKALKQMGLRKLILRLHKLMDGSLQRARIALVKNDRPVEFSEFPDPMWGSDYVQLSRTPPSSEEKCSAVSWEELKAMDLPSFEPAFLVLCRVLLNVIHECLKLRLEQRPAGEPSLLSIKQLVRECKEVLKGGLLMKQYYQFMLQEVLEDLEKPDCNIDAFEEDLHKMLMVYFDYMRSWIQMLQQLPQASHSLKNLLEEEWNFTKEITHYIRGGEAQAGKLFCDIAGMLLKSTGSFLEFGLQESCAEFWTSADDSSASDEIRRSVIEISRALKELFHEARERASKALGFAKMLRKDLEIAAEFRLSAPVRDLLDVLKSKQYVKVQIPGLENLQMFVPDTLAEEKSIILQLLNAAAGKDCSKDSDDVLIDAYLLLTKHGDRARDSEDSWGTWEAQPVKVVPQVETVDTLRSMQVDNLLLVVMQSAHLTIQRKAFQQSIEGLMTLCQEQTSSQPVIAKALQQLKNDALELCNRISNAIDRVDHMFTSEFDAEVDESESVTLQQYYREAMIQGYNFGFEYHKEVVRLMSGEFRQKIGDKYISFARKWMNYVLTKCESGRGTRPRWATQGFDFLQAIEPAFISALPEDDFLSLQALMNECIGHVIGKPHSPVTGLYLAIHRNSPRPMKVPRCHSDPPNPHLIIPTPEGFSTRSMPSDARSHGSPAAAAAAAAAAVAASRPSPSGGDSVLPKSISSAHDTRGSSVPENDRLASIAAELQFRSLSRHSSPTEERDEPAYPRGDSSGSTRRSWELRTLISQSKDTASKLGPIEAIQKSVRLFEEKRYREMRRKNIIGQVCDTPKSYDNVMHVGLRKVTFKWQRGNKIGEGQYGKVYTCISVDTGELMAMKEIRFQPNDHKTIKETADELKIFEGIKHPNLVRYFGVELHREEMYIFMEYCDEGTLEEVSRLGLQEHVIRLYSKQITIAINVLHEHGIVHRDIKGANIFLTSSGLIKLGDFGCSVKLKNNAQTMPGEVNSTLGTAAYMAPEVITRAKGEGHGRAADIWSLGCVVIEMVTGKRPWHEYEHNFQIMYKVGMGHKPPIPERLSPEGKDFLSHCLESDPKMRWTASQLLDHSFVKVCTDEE

T1: Growth arrest and DNA damage protein 45 beta (Gadd45B), 3xFLAG-tagged (human) (UniProt O75293)
T1 sequence: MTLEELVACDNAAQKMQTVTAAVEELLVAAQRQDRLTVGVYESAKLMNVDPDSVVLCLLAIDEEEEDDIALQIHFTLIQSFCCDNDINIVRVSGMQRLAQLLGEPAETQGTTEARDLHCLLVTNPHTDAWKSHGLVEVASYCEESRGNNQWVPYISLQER

B1: MYC-binding protein (MYCBP) (protein, UniProt Q99417 1-103)
chain: MAHYKAADSKREQFRRYLEKSGVLDTLTKVLVALYEEPEKPNSALDFLKHHLGAATPENPEIELLRLELAEMKEKYEAIVEENKKLKAKLAQYEPPQEEKRAE

Tests used:
[1] = molecular target: T1, Growth arrest and DNA damage protein 45 beta (Gadd45B), 3xFLAG-tagged (human); assay: co-IP; TPC-1 and Bcpap cells stably overexpressing Gadd45B-3×FLAG, transiently transfected with MAP3K4-His; lysates incubated overnight at 4 °C with anti-Flag or anti-His antibody, protein A/G agarose beads; Western blot with the reciprocal antibody
[2] = molecular target: T1, Growth arrest and DNA damage protein 45 beta (Gadd45B), 3xFLAG-tagged (human); assay: co-IP; Co-IP and Western blot of Gadd45B and MYCBP in Bcpap cells; antibodies and bait not told

Row | Molecule | binding [1] | binding [2]
1 | MAP3K4, His-tagged (from UniProt Q9Y6R4 1-1608) | binds | 
2 | B1 |  | binds
